# Reference: article PMC7024175, “In Depth Analysis of Kinase Cross Screening Data to Identify CAMKK2 Inhibitory Scaffolds” (Molecules, 2020)
# Tested on: MRC kinase panel
# Experiment: MRC kinase profiling panel, 1 µM
# Type: biochemical
# Details: profiled at MRC
smiles,measurement,setting,value
O=C(O)c1ccc(-c2c[nH]c3ncc(-c4ccccc4)cc23)cc1C1CCCC1 [GSK650394],S10 value,85 kinases,0.082
same,number of kinases inhibited by more than 90%,of 85 kinases,seven
